These are yes or no findings as the source states them, for the method shown. Binding seen in cells or lysates may run through a third protein. Some binding calls cover weakened binding; strength is not graded here. Tags and fused reporters may be left off the sequences shown.
B1: FLOT2 (protein, UniProt Q14254 1-428)
chain: MGNCHTVGPNEALVVSGGCCGSDYKQYVFGGWAWAWWCISDTQRISLEIMTLQPRCEDVETAEGVALTVTGVAQVKIMTEKELLAVACEQFLGKNVQDIKNVVLQTLEGHLRSILGTLTVEQIYQDRDQFAKLVREVAAPDVGRMGIEILSFTIKDVYDKVDYLSSLGKTQTAVVQRDADIGVAEAERDAGIREAECKKEMLDVKFMADTKIADSKRAFELQKSAFSEEVNIKTAEAQLAYELQGAREQQKIRQEEIEIEVVQRKKQIAVEAQEILRTDKELIATVRRPAEAEAHRIQQIAEGEKVKQVLLAQAEAEKIRKIGEAEAAVIEAMGKAEAERMKLKAEAYQKYGDAAKMALVLEALPQIAAKIAAPLTKVDEIVVLSGDNSKVTSEVNRLLAELPASVHALTGVDLSKIPLIKKATGVQV
B2: KCTD10 (protein, UniProt Q9H3F6 1-313)
chain: MEEMSGESVVSSAVPAAATRTTSFKGTSPSSKYVKLNVGGALYYTTMQTLTKQDTMLKAMFSGRMEVLTDSEGWILIDRCGKHFGTILNYLRDGAVPLPESRREIEELLAEAKYYLVQGLVEECQAALQNKDTYEPFCKVPVITSSKEEQKLIATSNKPAVKLLYNRSNNKYSYTSNSDDNMLKNIELFDKLSLRFNGRVLFIKDVIGDEICCWSFYGQGRKIAEVCCTSIVYATEKKQTKVEFPEARIYEETLNILLYEAQDGRGPDNALLEATGGAAGRSHHLDEDEERERIERVRRIHIKRPDDRAHLHQ
B3: FLOT1 (protein, UniProt O75955 1-427)
chain: MFFTCGPNEAMVVSGFCRSPPVMVAGGRVFVLPCIQQIQRISLNTLTLNVKSEKVYTRHGVPISVTGIAQVKIQGQNKEMLAAACQMFLGKTEAEIAHIALETLEGHQRAIMAHMTVEEIYKDRQKFSEQVFKVASSDLVNMGISVVSYTLKDIHDDQDYLHSLGKARTAQVQKDARIGEAEAKRDAGIREAKAKQEKVSAQYLSEIEMAKAQRDYELKKAAYDIEVNTRRAQADLAYQLQVAKTKQQIEEQRVQVQVVERAQQVAVQEQEIARREKELEARVRKPAEAERYKLERLAEAEKSQLIMQAEAEAASVRMRGEAEAFAIGARARAEAEQMAKKAEAFQLYQEAAQLDMLLEKLPQVAEEISGPLTSANKITLVSSGSGTMGAAKVTGEVLDILTRLPESVERLTGVSISQVNHKPLRTA

Sequences of proteins named here, by UniProt entry; tags and fusion partners are left off.
UniProt P19474: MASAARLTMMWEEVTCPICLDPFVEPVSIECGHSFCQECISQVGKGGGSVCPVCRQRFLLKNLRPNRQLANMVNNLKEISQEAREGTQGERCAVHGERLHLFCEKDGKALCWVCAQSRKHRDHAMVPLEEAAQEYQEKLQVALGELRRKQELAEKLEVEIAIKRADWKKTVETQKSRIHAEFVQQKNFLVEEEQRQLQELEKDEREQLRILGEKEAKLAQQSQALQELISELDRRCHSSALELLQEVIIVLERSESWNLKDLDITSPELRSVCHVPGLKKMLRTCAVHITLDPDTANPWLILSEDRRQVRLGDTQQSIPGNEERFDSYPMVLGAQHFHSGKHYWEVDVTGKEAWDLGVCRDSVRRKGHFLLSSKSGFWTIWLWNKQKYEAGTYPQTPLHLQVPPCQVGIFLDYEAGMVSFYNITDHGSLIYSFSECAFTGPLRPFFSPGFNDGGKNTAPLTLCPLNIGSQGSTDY
UniProt P17096: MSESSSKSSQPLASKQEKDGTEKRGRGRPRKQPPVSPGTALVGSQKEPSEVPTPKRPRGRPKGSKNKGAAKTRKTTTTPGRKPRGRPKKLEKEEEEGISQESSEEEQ

Each molecule was assayed against T1, TOX conjugated with a GFP tag (thymocyte selection-associated high mobility group box) (UniProt O94900) (assay: co-IP; 1 mg lysate protein (1X RIPA with protease inhibitors) incubated with anti-GFP antibody or IgG control at 4 °C overnight, magnetic beads, low-pH elution, Western blot; also done on cells treated with or without MG132).
T1 sequence: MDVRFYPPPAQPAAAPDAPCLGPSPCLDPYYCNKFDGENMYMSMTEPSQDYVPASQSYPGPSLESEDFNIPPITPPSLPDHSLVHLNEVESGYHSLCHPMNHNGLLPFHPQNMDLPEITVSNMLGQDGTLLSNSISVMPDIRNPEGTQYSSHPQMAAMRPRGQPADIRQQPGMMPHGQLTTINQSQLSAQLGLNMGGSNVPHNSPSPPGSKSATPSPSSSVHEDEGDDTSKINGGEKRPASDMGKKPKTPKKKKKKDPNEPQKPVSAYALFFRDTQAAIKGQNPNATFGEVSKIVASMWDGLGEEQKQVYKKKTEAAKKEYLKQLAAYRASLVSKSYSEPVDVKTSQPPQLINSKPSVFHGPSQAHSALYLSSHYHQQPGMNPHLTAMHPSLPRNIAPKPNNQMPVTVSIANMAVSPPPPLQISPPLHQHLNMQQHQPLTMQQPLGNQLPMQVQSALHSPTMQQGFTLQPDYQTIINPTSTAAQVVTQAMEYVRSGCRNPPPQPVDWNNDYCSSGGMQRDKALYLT
For TRIM21 (from UniProt P19474 1-475), the binding was “binds”.
With “High Mobility Group A1 (HMGA1) (from UniProt P17096 1-107)” the binding was “binds”.
For B1, the binding was “binds”.
With B2 the binding was “binds”.
In the case of B3, the binding is reported as “binds”.

Reference: PMC12035900
